In the supplement of paper PMC10849652:
The other results are listed elsewhere or left out.

Sequences of proteins named here, by UniProt entry; tags and fusion partners are left off. A change or cut given only in a name is not applied to a line headed by its entry.
UniProt Q96RT7, whole entry, looked up: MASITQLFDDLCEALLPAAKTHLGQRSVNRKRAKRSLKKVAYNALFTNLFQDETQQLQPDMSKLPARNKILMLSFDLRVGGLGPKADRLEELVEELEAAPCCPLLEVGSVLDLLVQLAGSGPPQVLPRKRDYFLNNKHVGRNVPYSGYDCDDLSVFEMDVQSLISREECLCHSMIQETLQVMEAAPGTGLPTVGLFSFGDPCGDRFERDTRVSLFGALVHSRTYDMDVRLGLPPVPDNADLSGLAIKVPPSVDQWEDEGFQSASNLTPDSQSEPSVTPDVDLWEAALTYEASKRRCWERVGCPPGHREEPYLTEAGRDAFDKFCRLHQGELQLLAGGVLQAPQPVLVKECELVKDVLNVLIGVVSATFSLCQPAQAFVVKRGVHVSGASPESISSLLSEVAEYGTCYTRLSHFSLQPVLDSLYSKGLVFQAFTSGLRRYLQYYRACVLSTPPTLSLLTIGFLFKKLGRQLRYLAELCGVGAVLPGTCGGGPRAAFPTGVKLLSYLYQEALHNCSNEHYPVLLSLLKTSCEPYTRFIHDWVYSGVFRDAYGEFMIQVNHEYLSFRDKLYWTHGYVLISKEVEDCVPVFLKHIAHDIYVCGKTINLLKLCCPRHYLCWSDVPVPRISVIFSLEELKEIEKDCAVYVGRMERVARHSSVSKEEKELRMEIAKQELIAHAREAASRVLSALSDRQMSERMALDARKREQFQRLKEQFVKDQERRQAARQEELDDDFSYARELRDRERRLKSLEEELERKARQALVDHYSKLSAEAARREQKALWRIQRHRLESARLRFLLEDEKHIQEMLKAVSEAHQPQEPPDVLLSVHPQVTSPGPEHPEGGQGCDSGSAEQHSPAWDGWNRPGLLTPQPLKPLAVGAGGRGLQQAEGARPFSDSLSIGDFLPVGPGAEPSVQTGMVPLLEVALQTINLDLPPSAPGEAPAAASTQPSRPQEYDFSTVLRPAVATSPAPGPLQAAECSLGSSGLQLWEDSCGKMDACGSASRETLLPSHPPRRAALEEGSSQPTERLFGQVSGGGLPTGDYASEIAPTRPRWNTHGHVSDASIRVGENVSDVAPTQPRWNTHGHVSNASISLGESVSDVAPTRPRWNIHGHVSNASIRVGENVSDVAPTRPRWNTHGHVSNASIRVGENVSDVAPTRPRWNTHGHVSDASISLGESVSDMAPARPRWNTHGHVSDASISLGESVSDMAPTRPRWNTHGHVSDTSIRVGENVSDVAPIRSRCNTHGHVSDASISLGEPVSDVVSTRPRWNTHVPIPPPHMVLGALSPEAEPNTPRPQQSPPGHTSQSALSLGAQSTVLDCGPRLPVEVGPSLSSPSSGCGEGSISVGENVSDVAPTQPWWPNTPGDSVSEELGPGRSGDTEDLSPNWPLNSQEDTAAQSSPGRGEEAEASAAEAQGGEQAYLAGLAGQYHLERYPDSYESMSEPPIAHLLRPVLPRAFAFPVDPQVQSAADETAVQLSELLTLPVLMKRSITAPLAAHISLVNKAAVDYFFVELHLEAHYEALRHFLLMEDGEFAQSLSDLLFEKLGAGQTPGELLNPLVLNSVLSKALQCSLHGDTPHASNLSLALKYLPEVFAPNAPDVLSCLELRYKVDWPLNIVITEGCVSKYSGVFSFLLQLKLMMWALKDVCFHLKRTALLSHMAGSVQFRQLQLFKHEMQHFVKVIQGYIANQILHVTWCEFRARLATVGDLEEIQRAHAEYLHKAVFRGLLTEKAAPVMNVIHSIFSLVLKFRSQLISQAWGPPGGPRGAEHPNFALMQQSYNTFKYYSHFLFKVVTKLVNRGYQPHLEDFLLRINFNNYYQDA
UniProt P68036, whole entry, looked up: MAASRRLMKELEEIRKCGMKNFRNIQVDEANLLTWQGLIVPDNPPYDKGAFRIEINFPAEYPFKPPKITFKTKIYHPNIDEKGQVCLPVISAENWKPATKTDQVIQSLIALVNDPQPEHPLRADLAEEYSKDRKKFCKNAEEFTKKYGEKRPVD
UniProt Q9BQE3, whole entry, looked up: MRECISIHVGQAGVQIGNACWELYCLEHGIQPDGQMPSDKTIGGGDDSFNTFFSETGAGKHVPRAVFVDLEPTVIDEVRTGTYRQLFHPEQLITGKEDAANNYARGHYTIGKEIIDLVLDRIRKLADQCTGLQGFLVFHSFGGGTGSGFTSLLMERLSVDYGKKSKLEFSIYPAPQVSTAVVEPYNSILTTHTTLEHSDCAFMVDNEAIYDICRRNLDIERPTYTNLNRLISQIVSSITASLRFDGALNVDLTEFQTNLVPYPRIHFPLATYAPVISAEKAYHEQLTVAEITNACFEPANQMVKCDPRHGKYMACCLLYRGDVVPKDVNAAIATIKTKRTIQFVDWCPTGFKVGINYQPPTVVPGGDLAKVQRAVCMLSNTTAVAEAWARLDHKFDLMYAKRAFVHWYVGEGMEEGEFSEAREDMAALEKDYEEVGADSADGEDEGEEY
UniProt Q04323: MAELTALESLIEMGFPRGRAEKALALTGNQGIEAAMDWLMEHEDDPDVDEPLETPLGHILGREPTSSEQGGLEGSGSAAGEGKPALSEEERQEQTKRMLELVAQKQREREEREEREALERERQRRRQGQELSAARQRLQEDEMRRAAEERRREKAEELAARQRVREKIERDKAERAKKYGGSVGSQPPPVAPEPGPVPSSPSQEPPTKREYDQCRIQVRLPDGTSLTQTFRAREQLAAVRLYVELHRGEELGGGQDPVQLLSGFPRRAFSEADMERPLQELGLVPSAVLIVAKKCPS
UniProt Q9UGJ1, whole entry, looked up: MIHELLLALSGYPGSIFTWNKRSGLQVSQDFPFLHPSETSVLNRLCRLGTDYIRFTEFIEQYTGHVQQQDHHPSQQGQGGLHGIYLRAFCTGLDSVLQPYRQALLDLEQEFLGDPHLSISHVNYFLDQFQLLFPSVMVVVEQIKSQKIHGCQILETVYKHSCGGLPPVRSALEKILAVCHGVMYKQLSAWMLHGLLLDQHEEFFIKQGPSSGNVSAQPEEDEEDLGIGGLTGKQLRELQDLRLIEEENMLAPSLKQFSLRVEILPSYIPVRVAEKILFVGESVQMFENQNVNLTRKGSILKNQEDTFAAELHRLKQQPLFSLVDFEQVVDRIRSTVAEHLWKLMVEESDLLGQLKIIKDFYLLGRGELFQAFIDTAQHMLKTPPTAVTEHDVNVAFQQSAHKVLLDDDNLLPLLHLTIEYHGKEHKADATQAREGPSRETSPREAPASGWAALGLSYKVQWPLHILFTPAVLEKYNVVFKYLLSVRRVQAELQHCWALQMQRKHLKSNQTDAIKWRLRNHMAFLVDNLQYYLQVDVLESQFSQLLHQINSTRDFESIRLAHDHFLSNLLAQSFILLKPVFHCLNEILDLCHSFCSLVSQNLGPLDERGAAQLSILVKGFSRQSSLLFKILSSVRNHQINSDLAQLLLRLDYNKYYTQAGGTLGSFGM
UniProt Q16881, whole entry, looked up: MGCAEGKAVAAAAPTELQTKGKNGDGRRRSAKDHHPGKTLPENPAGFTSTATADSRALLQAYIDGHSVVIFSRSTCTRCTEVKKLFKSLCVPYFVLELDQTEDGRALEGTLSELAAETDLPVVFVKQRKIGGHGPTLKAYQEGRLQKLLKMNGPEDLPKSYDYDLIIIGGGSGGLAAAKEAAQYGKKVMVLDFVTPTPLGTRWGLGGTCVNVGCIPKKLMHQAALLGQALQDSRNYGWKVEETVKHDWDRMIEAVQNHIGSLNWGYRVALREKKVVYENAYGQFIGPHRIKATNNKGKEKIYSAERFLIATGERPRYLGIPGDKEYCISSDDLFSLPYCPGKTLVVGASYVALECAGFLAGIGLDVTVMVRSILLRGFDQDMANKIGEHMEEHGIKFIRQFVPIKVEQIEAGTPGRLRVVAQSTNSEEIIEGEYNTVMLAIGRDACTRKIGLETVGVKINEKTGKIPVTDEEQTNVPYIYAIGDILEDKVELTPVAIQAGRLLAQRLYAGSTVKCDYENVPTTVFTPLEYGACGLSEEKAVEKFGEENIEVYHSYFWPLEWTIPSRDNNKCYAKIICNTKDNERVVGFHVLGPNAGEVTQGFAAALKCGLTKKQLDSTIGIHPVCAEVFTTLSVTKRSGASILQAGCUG
UniProt A6NNZ2, whole entry, looked up: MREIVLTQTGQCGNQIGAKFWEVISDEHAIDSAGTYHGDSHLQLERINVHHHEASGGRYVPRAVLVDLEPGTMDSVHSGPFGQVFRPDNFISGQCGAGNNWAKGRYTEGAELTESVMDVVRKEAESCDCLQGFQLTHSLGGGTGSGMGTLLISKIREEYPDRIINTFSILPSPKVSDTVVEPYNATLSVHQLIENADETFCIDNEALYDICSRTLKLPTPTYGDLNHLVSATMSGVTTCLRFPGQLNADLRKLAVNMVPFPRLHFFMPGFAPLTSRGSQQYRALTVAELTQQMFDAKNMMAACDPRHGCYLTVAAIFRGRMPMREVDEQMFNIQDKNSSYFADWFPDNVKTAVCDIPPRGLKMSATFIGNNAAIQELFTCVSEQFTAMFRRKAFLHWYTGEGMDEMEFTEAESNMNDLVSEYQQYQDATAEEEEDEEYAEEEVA
UniProt O95881: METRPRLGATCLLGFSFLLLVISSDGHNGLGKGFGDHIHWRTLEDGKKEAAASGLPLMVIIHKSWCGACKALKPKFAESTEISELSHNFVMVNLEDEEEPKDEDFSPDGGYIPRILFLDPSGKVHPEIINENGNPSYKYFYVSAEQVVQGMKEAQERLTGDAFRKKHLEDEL
UniProt Q9NRR5, whole entry, looked up: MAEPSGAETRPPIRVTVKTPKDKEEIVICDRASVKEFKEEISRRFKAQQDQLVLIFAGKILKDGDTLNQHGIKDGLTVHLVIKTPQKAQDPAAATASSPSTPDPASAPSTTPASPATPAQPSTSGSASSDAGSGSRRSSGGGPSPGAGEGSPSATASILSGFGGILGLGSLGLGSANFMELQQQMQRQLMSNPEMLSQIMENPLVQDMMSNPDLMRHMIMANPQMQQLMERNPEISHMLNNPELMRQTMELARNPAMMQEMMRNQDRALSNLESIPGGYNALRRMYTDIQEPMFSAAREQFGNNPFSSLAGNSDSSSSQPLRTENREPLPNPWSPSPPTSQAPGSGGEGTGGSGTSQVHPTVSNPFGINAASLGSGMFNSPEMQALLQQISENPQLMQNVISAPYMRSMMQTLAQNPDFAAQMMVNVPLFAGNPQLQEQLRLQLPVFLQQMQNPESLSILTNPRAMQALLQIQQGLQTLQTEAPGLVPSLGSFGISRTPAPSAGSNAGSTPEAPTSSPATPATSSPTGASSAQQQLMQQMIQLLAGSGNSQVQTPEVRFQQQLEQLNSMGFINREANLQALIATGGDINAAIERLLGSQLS
UniProt Q8WVN8: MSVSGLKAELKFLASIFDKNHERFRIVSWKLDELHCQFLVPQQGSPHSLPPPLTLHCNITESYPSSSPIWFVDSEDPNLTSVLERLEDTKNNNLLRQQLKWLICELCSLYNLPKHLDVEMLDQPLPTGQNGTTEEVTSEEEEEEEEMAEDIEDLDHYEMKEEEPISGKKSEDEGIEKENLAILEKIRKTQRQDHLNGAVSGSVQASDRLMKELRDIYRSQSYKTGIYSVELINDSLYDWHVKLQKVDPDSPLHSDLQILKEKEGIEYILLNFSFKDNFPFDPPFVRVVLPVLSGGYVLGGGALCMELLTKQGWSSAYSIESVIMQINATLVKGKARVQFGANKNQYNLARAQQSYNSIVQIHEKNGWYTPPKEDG
UniProt Q9UBT2: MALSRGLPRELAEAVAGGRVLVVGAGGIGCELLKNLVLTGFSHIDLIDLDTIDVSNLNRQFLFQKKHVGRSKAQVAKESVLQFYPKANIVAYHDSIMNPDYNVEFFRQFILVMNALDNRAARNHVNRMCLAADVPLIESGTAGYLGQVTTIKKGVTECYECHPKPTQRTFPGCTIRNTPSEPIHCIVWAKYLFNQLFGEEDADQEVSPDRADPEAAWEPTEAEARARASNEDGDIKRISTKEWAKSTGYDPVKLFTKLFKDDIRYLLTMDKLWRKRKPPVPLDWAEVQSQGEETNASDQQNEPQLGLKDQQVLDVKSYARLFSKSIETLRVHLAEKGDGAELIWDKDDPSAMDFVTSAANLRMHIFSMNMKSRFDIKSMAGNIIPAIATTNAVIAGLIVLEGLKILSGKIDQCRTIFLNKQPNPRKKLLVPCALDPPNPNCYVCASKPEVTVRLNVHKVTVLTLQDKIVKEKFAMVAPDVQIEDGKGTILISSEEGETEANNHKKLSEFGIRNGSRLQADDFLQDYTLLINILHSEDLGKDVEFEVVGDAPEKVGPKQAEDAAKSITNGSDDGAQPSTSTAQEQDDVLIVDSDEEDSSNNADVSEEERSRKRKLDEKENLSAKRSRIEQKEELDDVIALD
UniProt Q9Y5K5, whole entry, looked up: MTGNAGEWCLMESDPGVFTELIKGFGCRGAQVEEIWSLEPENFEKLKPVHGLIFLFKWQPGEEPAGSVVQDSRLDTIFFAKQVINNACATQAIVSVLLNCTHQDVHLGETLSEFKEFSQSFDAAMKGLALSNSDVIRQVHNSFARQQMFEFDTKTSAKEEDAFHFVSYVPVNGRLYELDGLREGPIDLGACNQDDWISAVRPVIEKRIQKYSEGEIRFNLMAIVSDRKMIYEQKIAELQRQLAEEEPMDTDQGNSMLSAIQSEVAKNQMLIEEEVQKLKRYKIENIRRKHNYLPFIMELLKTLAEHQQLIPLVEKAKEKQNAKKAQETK

Experiments:
Test in all cases: log2 fold change, soluble protein after heating vs DMSO (PISA); higher = thermal stabilisation; K562 lysate, 10 uM; active = over 0.2 and 3.5 SD of the protein, either way, in both replicates (recomputed)
[1] = compound: CCCS(=O)(=O)Nc1ccc(F)c(C(=O)c2c[nH]c3ncc(-c4ccc(Cl)cc4)cc23)c1F [vemurafenib]
In short: (§1)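 K562 pellets were dounce-homogenised in PBS pH 7.4 with 1 mM MgCl2, and the crude extract at 1 mg/mL protein was treated with 10 μM compound for 30 min. Aliquots were heated for 3 min across 48°C-58°C, pooled, and brought to 0.5% NP-40 at 4°C; soluble protein was the supernatant after 21,000xg for 90 min. Soluble protein was quantified by TMTpro 16plex LC-MS/MS with channel sums equalised, and reported as log2 fold change in thermal stability against DMSO controls, with values from duplicates.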

[2] = compound: CCCS(=O)(=O)Nc1ccc(F)c(C(=O)c2c[nH]c3ncc(Cl)cc23)c1F
In short: as §1

[3] = compound: CCN(CCCOc1ccc2c(Nc3cc(CC(=O)Nc4cccc(F)c4)[nH]n3)ncnc2c1)CCOP(=O)(O)O [barasertib]
In short: as §1

[4] = compound: CC[C@@H]1C(=O)N(C)c2cnc(Nc3ccc(C(=O)NC4CCN(C)CC4)cc3OC)nc2N1C1CCCC1
In short: as §1

[5] = compound: CC[C@@H]1C(=O)N(C)c2cnc(Nc3ccc(C(=O)N[C@H]4CC[C@H](N5CCN(CC6CC6)CC5)CC4)cc3OC)nc2N1C(C)C [volasertib]
In short: as §1

[6] = compound: CCn1c(C(=O)N(C2CC2)C2CC2)cc2c3c(ncn3C)c(Nc3cc(C)n(C)n3)nc21
In short: as §1

[7] = compound: CCn1cc(-c2ccnc3[nH]c(-c4cccc(CN(C)C)c4)cc23)c(-c2ccc(NC(=O)N(C)C)cc2)n1
In short: as §1

[8] = compound: CN1CCC(CNc2ccc3ncc(-c4cccc(OC(F)(F)F)c4)n3n2)CC1
In short: as §1

[9] = compound: CN1CCN(CCOc2cc(OC3CCOCC3)c3c(Nc4c(Cl)ccc5c4OCO5)ncnc3c2)CC1 [saracatinib]
In short: as §1

[10] = compound: CN1CCN(c2nc(C3=C(c4c[nH]c5ccccc45)C(=O)NC3=O)c3ccccc3n2)CC1 [sotrastaurin]
In short: as §1

Measured: log2 fold change

UBC (UniProt P0CG48)
inactive: [1] -0.01 | [2] -0.018 | [3] -0.013 | [4] 0.034 | [5] 0.035 | [6] -0.002 | [7] 0.064 | [8] -0.07 | [9] 0.008 | [10] -0.022

TXN2 (UniProt Q99757)
inactive: [1] 0.034 | [2] -0.05 | [3] 0.072 | [4] 0.046 | [5] 0.022 | [6] -0.051 | [7] -0.156 | [8] 0.001 | [9] -0.045 | [10] -0.026

UBE4A isoform 2 (UniProt Q14139)
inactive: [1] -0.008 | [2] -0.001 | [3] -0.009 | [4] 0.003 | [5] -0.053 | [6] 0.031 | [7] -0.03 | [8] -0.081 | [9] 0.011 | [10] 0.025

UCHL5 (UniProt Q5LJA9)
inactive: [1] -0.021 | [2] -0.061 | [3] -0.01 | [4] -0.103 | [5] 0.03 | [6] -0.108 | [7] 0.019 | [8] 0 | [9] 0.023 | [10] 0.007

UBA1 (UniProt P22314)
inactive: [1] 0.018 | [2] 0.005 | [3] 0.023 | [4] -0.063 | [5] -0.036 | [6] -0.006 | [7] -0.027 | [8] 0.004 | [9] -0.02 | [10] 0.008

TUBGCP6 (UniProt Q96RT7)
inactive: [1] -0.058 | [2] -0.046 | [3] 0.025 | [4] -0.062 | [5] -0.032 | [6] -0.13 | [7] -0.218 | [8] 0.031 | [9] -0.024 | [10] -0.002

UBE2L3 isoform 3 (UniProt P68036)
inactive: [1] 0.04 | [2] -0.022 | [3] -0.033 | [4] 0.02 | [5] 0.035 | [6] -0.023 | [7] 0.116 | [8] -0.031 | [9] -0.027 | [10] 0.016

TUBA1C (UniProt Q9BQE3)
inactive: [1] 0.036 | [2] 0.026 | [3] 0.013 | [4] 0.009 | [5] -0.059 | [6] -0.029 | [7] -0.082 | [8] 0.022 | [9] 0.054 | [10] 0.044

UBXN1 (UniProt Q04323)
inactive: [1] 0.005 | [2] 0.018 | [3] -0.04 | [4] 0.024 | [5] 0.032 | [6] 0.01 | [7] -0.058 | [8] 0.063 | [9] 0 | [10] 0.03

TUBAL3 (UniProt A6NHL2)
inactive: [1] 0.084 | [2] -0.024 | [3] -0.011 | [4] -0.122 | [5] 0.041 | [6] -0.196 | [7] -0.413 | [8] 0.284 | [9] 0.001

TUBGCP4 (UniProt Q9UGJ1)
inactive: [1] 0.088 | [2] 0.028 | [3] 0.116 | [4] 0.039 | [5] -0.027 | [6] 0.026 | [7] 0.013 | [8] -0.077 | [9] 0.025 | [10] 0.109

UBR7 (UniProt Q8N806)
inactive: [1] -0.005 | [2] 0.004 | [3] -0.017 | [4] 0.018 | [5] -0.017 | [6] -0.026 | [7] 0.188 | [8] -0.092 | [9] 0.006 | [10] 0.036

TXNRD1 isoform 7 (UniProt Q16881)
inactive: [1] 0.261 | [2] -0.026 | [3] -0.107 | [4] 0.351 | [5] 0.282 | [6] -0.127 | [7] -0.424 | [8] 0.313 | [9] 0.04

UBE2M (UniProt P61081)
inactive: [1] -0.026 | [2] 0.026 | [3] -0.031 | [4] 0.009 | [5] 0.011 | [6] -0.001 | [7] 0.074 | [8] 0.013 | [9] -0.049 | [10] -0.061

UBLCP1 (UniProt Q8WVY7)
inactive: [1] -0.188 | [2] -0.021 | [3] -0.032 | [4] -0.025 | [5] -0.045 | [6] 0.051 | [7] 0.13 | [8] -0.063 | [9] -0.026 | [10] 0.006

TUBB1 (UniProt Q9H4B7)
inactive: [1] -0.039 | [2] 0.011 | [3] 0.002 | [4] -0.025 | [5] -0.087 | [6] 0.034 | [7] 0.15 | [8] -0.025 | [9] -0.002 | [10] -0.045

TUBB8B (UniProt A6NNZ2)
inactive: [1] -0.089 | [2] 0.127 | [3] -0.179 | [4] -0.023 | [5] -0.067 | [6] 0.036 | [7] -0.012 | [8] 0.016 | [9] -0.01

TXNDC12 (UniProt O95881)
inactive: [1] -0.048 | [2] -0.014 | [3] 0.08 | [4] -0.08 | [5] 0.012 | [6] 0.012 | [7] -0.022 | [8] 0.021 | [9] 0.046 | [10] -0.022

UBE2J1 (UniProt Q9Y385)
inactive: [1] 0.159 | [2] -0.008 | [3] 0.059 | [4] 0.147 | [5] -0.021 | [6] -0.04 | [7] 0.075 | [8] -0.012 | [9] 0.084 | [10] -0.026

UBQLN4 (UniProt Q9NRR5)
inactive: [1] -0.014 | [2] 0.023 | [3] 0.22 | [4] 0.017 | [5] 0.018 | [6] -0.059 | [7] 0.036 | [8] -0.048 | [9] 0.026 | [10] 0.012

TYW1 (UniProt Q9NV66)
inactive: [1] -0.088 | [2] 0.122 | [3] 0.118 | [4] 0.135 | [5] -0.048 | [6] -0.129 | [7] -0.002 | [8] -0.063 | [9] 0.04 | [10] 0.034

UBE2Q2 (UniProt Q8WVN8)
inactive: [1] 0.176 | [2] -0.077 | [3] 0.06 | [4] 0.305 | [5] -0.015 | [6] 0.072 | [7] 0.017 | [8] 0.071 | [9] 0.057

Looked up one by one from the list above (2):
TXNDC12 (UniProt O95881)
inactive: [1] -0.048 | [2] -0.014 | [3] 0.08 | [4] -0.08 | [5] 0.012 | [6] 0.012 | [7] -0.022 | [8] 0.021 | [9] 0.046 | [10] -0.022

UBQLN4 (UniProt Q9NRR5)
inactive: [1] -0.014 | [2] 0.023 | [3] 0.22 | [4] 0.017 | [5] 0.018 | [6] -0.059 | [7] 0.036 | [8] -0.048 | [9] 0.026 | [10] 0.012

The listing continues:

UBA2 (UniProt Q9UBT2)
inactive: [1] 0.001 | [2] -0.023 | [3] -0.02 | [4] 0.011 | [5] 0.01 | [6] 0.01 | [7] 0.013 | [8] 0.02 | [9] 0 | [10] 0.009

UBAC2 (UniProt Q8NBM4)
inactive: [1] -0.018 | [2] -0.122 | [3] 0.03 | [4] 0.242 | [5] -0.157 | [6] -0.01 | [7] 0.027 | [8] -0.063 | [9] 0.094 | [10] 0.032

UBE3D (UniProt Q7Z6J8)
inactive: [1] 0.089 | [2] -0.043 | [3] 0.006 | [4] 0.057 | [5] 0.035 | [6] -0.066 | [7] -0.043 | [8] 0.086 | [9] -0.054 | [10] 0.03

UCHL5 isoform 3 (UniProt Q9Y5K5)
inactive: [1] 0.013 | [2] 0.016 | [3] -0.001 | [4] -0.019 | [5] -0.017 | [6] 0.014 | [7] 0.164 | [8] -0.06 | [9] -0.012 | [10] -0.005

TUT7 (UniProt Q5VYS8)
inactive: [1] 0.037 | [2] -0.022 | [3] -0.03 | [4] 0.03 | [5] 0 | [6] -0.018 | [7] 0.03 | [8] -0.1 | [9] 0.171 | [10] -0.145

TXLNG (UniProt Q9NUQ3)
inactive: [1] 0.001 | [2] 0.008 | [3] -0.002 | [4] 0.028 | [5] -0.001 | [6] 0.008 | [7] -0.025 | [8] 0.02 | [9] 0.006 | [10] 0.008
